Data: article PMC3903133, “Single-molecule analysis reveals self assembly and nanoscale segregation of two distinct cavin subcomplexes on caveolae” (eLife, 2014)
No constants are given. Whether binding was seen depends on the method and setting. For some assays here: Binding seen in cells or lysates may run through a third protein. Some entries that bind do so weakly or less than the wild type. For some assays here: Where a sequence is shown, tags or fusion partners need not be part of it. Each block holds one binder with its values, some of them ahead of it.

How the values were obtained:
[1] = target: cavin3-Cherry-myc (cell-free) (UniProt Q969G5); assay: single-molecule two-colour fluorescence coincidence; co-expression in the Leishmania tarentolae cell-free system at DNA ratios from 100% GFP to 100% Cherry; >1000 bursts for each ratio
cavin1-GFP (cell-free) [2] = target: T1, cavin1-GFP (cell-free) (UniProt Q6NZI2); assay: AlphaScreen or HTRF; pairs co-expressed in the Leishmania cell-free system (3.5 hr, 27°C), serial dilutions in 25 mM HEPES, 50 mM NaCl; anti-Myc acceptor beads, biotin labeled GFP-nanotrap on streptavidin donor beads; room temperature
T1 sequence: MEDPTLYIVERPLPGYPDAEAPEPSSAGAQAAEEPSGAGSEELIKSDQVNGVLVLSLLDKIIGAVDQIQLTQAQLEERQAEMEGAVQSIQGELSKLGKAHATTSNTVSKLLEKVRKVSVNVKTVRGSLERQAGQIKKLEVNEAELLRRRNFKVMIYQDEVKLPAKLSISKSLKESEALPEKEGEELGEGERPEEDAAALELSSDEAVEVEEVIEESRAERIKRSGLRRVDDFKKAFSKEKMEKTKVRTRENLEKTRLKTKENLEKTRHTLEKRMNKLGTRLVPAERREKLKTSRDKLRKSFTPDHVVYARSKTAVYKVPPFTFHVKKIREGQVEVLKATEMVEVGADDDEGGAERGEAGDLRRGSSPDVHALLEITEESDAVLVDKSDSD

cavin2-GFP [3] = target: T2, cavin2-GFP (UniProt O95810); assay: condition: only after hypo-osmotic treatment (20 min); pull-down; as the GFP Trap pull-down from MDCK cells, after hypo-osmotic treatment (20 min at 37°C)
T2 sequence: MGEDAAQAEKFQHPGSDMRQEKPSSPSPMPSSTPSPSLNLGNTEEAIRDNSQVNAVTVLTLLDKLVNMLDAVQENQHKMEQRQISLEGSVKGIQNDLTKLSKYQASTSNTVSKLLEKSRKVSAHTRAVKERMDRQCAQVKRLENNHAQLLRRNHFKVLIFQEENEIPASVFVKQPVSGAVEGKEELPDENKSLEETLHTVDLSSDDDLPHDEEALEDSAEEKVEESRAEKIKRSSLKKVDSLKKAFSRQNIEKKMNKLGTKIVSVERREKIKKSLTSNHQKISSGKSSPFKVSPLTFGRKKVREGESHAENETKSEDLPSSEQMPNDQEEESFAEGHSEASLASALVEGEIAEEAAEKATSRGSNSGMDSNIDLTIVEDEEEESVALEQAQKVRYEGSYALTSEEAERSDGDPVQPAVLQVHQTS

cavin2-GFP [4] = target: T2, cavin2-GFP; assay: pull-down; MCF-7 cells transfected with equal amounts of GFP and Cherry constructs; post-nuclear supernatant on GFP Trap beads 30 min at 4°C, washed in PBS; in-gel fluorescence
cavin1-GFP [5] = target: T3, cavin1-GFP (UniProt Q6NZI2); assay: pull-down; MDCK cells (endogenous cavin1 and CAV1) transfected with equal amounts of GFP and Cherry constructs; iso-osmotic or hypo-osmotic medium 20 min at 37°C; post nuclear supernatant on GFP Trap beads 30 min at 4°C; in-gel fluorescence
T3 sequence: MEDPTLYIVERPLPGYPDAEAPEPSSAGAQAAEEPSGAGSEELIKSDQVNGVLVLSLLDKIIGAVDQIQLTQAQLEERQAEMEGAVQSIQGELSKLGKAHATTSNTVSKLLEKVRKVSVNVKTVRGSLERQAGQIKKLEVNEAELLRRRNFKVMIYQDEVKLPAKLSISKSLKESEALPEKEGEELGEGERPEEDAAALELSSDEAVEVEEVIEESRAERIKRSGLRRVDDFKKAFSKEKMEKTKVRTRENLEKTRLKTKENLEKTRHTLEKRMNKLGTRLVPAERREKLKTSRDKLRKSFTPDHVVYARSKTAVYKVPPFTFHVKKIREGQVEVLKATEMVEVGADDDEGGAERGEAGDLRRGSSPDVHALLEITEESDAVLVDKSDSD

cavin1-GFP [6] = target: T3, cavin1-GFP; assay: single-molecule two-colour fluorescence coincidence; MCF-7 cells (cavin and caveola-deficient, no CAV1) co-transfected with a GFP and a Cherry fusion; mechanically lysed, supernatant diluted to approximately 100 pM; confocal detection of freely diffusing proteins, room temperature
cavin2-GFP [7] = target: T2, cavin2-GFP; assay: as above
cavin3-Cherry = cavin3-Cherry (UniProt Q969G5); assay: as above
cavin1-GFP (cell-free) [8] = target: T1, cavin1-GFP (cell-free); assay: single-molecule two-colour fluorescence coincidence; co-expression in the Leishmania tarentolae cell-free system at DNA ratios from 100% GFP to 100% Cherry; >1000 bursts for each ratio
[9] = target: cavin2-Cherry-myc (cell-free) (UniProt O95810); assay: as above
cavin2-GFP (cell-free) [10] = target: T4, cavin2-GFP (cell-free) (UniProt O95810); assay: AlphaScreen or HTRF; pairs co-expressed in the Leishmania cell-free system (3.5 hr, 27°C), serial dilutions in 25 mM HEPES, 50 mM NaCl; anti-Myc acceptor beads, biotin labeled GFP-nanotrap on streptavidin donor beads; room temperature
T4 sequence: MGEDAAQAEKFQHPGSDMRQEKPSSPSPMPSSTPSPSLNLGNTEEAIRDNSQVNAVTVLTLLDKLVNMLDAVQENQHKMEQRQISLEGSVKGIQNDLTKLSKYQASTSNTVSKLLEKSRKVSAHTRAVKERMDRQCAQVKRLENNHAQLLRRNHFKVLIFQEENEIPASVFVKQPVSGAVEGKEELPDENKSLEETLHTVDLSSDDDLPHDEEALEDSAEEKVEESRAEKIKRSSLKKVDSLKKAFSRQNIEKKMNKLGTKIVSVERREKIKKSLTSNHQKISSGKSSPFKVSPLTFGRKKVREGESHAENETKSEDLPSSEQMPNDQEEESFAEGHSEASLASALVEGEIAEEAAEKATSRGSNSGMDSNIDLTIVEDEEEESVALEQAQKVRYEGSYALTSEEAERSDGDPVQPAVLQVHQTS

cavin3-GFP (cell-free) = target: T5, cavin3-GFP (cell-free) (UniProt Q969G5); assay: as above
T5 sequence: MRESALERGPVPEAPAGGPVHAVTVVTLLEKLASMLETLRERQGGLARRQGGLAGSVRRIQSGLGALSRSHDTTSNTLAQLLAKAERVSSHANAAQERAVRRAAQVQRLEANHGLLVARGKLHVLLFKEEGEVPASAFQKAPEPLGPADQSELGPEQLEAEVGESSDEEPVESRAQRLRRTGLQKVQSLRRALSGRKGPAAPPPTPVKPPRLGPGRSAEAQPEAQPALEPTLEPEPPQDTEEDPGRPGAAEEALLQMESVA

cavin2-GFP (cell-free) [11] = target: T4, cavin2-GFP (cell-free); assay: single-molecule two-colour fluorescence coincidence; co-expression in the Leishmania tarentolae cell-free system at DNA ratios from 100% GFP to 100% Cherry; >1000 bursts for each ratio

B3: cavin2-Cherry-myc (cell-free) (protein, UniProt O95810 1-425)
chain: MGEDAAQAEKFQHPGSDMRQEKPSSPSPMPSSTPSPSLNLGNTEEAIRDNSQVNAVTVLTLLDKLVNMLDAVQENQHKMEQRQISLEGSVKGIQNDLTKLSKYQASTSNTVSKLLEKSRKVSAHTRAVKERMDRQCAQVKRLENNHAQLLRRNHFKVLIFQEENEIPASVFVKQPVSGAVEGKEELPDENKSLEETLHTVDLSSDDDLPHDEEALEDSAEEKVEESRAEKIKRSSLKKVDSLKKAFSRQNIEKKMNKLGTKIVSVERREKIKKSLTSNHQKISSGKSSPFKVSPLTFGRKKVREGESHAENETKSEDLPSSEQMPNDQEEESFAEGHSEASLASALVEGEIAEEAAEKATSRGSNSGMDSNIDLTIVEDEEEESVALEQAQKVRYEGSYALTSEEAERSDGDPVQPAVLQVHQTS
binding (cavin1-GFP (cell-free) [8]): binds
binding [9]: binds
binding (cavin1-GFP (cell-free) [2]): binds
binding (cavin2-GFP (cell-free) [10]): binds
binding (cavin3-GFP (cell-free)): no binding

B4: cavin2-Cherry (protein, UniProt O95810 1-425)
chain: MGEDAAQAEKFQHPGSDMRQEKPSSPSPMPSSTPSPSLNLGNTEEAIRDNSQVNAVTVLTLLDKLVNMLDAVQENQHKMEQRQISLEGSVKGIQNDLTKLSKYQASTSNTVSKLLEKSRKVSAHTRAVKERMDRQCAQVKRLENNHAQLLRRNHFKVLIFQEENEIPASVFVKQPVSGAVEGKEELPDENKSLEETLHTVDLSSDDDLPHDEEALEDSAEEKVEESRAEKIKRSSLKKVDSLKKAFSRQNIEKKMNKLGTKIVSVERREKIKKSLTSNHQKISSGKSSPFKVSPLTFGRKKVREGESHAENETKSEDLPSSEQMPNDQEEESFAEGHSEASLASALVEGEIAEEAAEKATSRGSNSGMDSNIDLTIVEDEEEESVALEQAQKVRYEGSYALTSEEAERSDGDPVQPAVLQVHQTS
binding (cavin1-GFP [5]): binds
binding (cavin1-GFP [6]): binds

B5: cavin2-GFP (cell-free) (protein, UniProt O95810 1-425)
chain: MGEDAAQAEKFQHPGSDMRQEKPSSPSPMPSSTPSPSLNLGNTEEAIRDNSQVNAVTVLTLLDKLVNMLDAVQENQHKMEQRQISLEGSVKGIQNDLTKLSKYQASTSNTVSKLLEKSRKVSAHTRAVKERMDRQCAQVKRLENNHAQLLRRNHFKVLIFQEENEIPASVFVKQPVSGAVEGKEELPDENKSLEETLHTVDLSSDDDLPHDEEALEDSAEEKVEESRAEKIKRSSLKKVDSLKKAFSRQNIEKKMNKLGTKIVSVERREKIKKSLTSNHQKISSGKSSPFKVSPLTFGRKKVREGESHAENETKSEDLPSSEQMPNDQEEESFAEGHSEASLASALVEGEIAEEAAEKATSRGSNSGMDSNIDLTIVEDEEEESVALEQAQKVRYEGSYALTSEEAERSDGDPVQPAVLQVHQTS
binding (cavin2-GFP (cell-free) [11]): binds

B6: cavin2-GFP (natural protein, UniProt O95810 1-425, looked up)
chain: MGEDAAQAEKFQHPGSDMRQEKPSSPSPMPSSTPSPSLNLGNTEEAIRDNSQVNAVTVLTLLDKLVNMLDAVQENQHKMEQRQISLEGSVKGIQNDLTKLSKYQASTSNTVSKLLEKSRKVSAHTRAVKERMDRQCAQVKRLENNHAQLLRRNHFKVLIFQEENEIPASVFVKQPVSGAVEGKEELPDENKSLEETLHTVDLSSDDDLPHDEEALEDSAEEKVEESRAEKIKRSSLKKVDSLKKAFSRQNIEKKMNKLGTKIVSVERREKIKKSLTSNHQKISSGKSSPFKVSPLTFGRKKVREGESHAENETKSEDLPSSEQMPNDQEEESFAEGHSEASLASALVEGEIAEEAAEKATSRGSNSGMDSNIDLTIVEDEEEESVALEQAQKVRYEGSYALTSEEAERSDGDPVQPAVLQVHQTS
notes: cavin2 / SDPR (serum deprivation response protein); construct cloned as described in Hill et al. (2008); The only hint on species is the keyword 'human'; the cDNA may be of mouse (surmise); also called SDPR; serum deprivation response protein; source: MCF-7 or MDCK cells, transfected (Lipofectamine 2000), in supernatant of mechanically lysed cells
binding (cavin2-GFP [7]): binds

Now from value to binder, other results behind:

binding (cavin1-GFP (cell-free) [2]): binds
B1: cavin3-Cherry-myc (cell-free) (natural protein, UniProt Q969G5 1-261, looked up)
chain: MRESALERGPVPEAPAGGPVHAVTVVTLLEKLASMLETLRERQGGLARRQGGLAGSVRRIQSGLGALSRSHDTTSNTLAQLLAKAERVSSHANAAQERAVRRAAQVQRLEANHGLLVARGKLHVLLFKEEGEVPASAFQKAPEPLGPADQSELGPEQLEAEVGESSDEEPVESRAQRLRRTGLQKVQSLRRALSGRKGPAAPPPTPVKPPRLGPGRSAEAQPEAQPALEPTLEPEPPQDTEEDPGRPGAAEEALLQMESVA
notes: cavin3 / SRBC; ORF in a Gateway DNA template for cell-free expression; also called SRBC; cavin3-myc; source: Leishmania tarentolae cell-free system (LTE), in vitro translated, not purified; not shown: mCherry, C-terminal, kept; Myc, C-terminal, kept
binding [1]: binds

binding (cavin2-GFP [3]): no binding
binding (cavin2-GFP [4]): no binding
binding (cavin1-GFP [5]): binds
B2: cavin3-Cherry (natural protein, UniProt Q969G5 1-261, looked up)
chain: MRESALERGPVPEAPAGGPVHAVTVVTLLEKLASMLETLRERQGGLARRQGGLAGSVRRIQSGLGALSRSHDTTSNTLAQLLAKAERVSSHANAAQERAVRRAAQVQRLEANHGLLVARGKLHVLLFKEEGEVPASAFQKAPEPLGPADQSELGPEQLEAEVGESSDEEPVESRAQRLRRTGLQKVQSLRRALSGRKGPAAPPPTPVKPPRLGPGRSAEAQPEAQPALEPTLEPEPPQDTEEDPGRPGAAEEALLQMESVA
notes: construct cloned as described in Hill et al. (2008); The only hint on species is the keyword 'human'; the cDNA may be of mouse (surmise); also called SRBC; C3-C; source: MCF-7 or MDCK cells, transfected (Lipofectamine 2000), in supernatant of mechanically lysed cells
binding (cavin1-GFP [6]): binds
binding (cavin2-GFP [7]): no binding
binding (cavin3-Cherry): binds
